From paper PMC3182922
Results are given in words; binding and its absence hold for the method and conditions named. Binding seen in cells or lysates may run through a third protein. A yes stands for co-enrichment or nearness to the bait. Other partners may have been found.

Protein sequences, listed by entry. Tags and fused reporters are not part of them.
UniProt A0A125YP06: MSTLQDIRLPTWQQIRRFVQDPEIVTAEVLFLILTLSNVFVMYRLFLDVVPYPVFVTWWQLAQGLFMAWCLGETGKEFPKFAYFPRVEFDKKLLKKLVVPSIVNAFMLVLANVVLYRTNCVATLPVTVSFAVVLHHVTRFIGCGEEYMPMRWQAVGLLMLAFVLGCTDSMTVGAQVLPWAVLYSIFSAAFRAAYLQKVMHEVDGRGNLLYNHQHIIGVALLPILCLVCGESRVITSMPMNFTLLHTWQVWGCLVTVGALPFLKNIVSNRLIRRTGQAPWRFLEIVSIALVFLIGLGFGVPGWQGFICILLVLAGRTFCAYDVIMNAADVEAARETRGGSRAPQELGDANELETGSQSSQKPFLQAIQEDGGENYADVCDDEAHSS

T1: Glideosome-Associated Protein 45 (Toxoplasma gondii (endogenous in tachyzoites)) (UniProt Q7Z289)
T1 sequence: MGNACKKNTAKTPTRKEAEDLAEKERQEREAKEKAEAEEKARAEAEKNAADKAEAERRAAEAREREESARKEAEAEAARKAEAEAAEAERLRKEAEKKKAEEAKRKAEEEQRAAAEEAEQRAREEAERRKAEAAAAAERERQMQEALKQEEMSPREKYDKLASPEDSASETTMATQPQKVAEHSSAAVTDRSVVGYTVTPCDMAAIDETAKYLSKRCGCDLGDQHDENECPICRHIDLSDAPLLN


Tests used:
[1] = molecular target: T1, Glideosome-Associated Protein 45 (Toxoplasma gondii (endogenous in tachyzoites)); assay: affinity purification with mass spectrometry; anti-GAP45 IgG cross-linked to Sepharose 4B; 1:1 mixture of lysates of un-stimulated (light) and 1% ethanol-stimulated (heavy, SILAC) tachyzoites in 20 mM HEPES pH 7.4, 150 mM NaCl, 1% Triton X-100, 0.5% NP-40; 1 h at 4°C; eluates stained with Sypro Ruby and analysed by Orbitrap LC-MS/MS
[2] = molecular target: HA-tagged Myosin Light Chain 1 (Toxoplasma gondii); assay: affinity purification with mass spectrometry; anti-HA magnetic microbeads, lysate of MLC1-HA expressing parasites; eluted proteins stained with Sypro Ruby, bands identified by LC-MS/MS

| Molecule | binding [1] | binding [2] |
| --- | --- | --- |
| Glideosome-Associated Protein 40 (from UniProt A0A125YP06 1-385) | binds |  |
| Glideosome-Associated Protein 50 | binds |  |
| Myosin A (from UniProt O00934 1-831) | binds |  |
| Myosin Light Chain 1 | binds |  |
| Glideosome-Associated Protein 45 (protein, UniProt Q7Z289 1-245) MGNACKKNTAKTPTRKEAEDLAEKERQEREAKEKAEAEEKARAEAEKNAADKAEAERRAAEAREREESARKEAEAEAARKAEAEAAEAERLRKEAEKKKAEEAKRKAEEEQRAAAEEAEQRAREEAERRKAEAAAAAERERQMQEALKQEEMSPREKYDKLASPEDSASETTMATQPQKVAEHSSAAVTDRSVVGYTVTPCDMAAIDETAKYLSKRCGCDLGDQHDENECPICRHIDLSDAPLLN |  | binds |
